Data published in patent US20120009123A1, “Albumin binding peptide-mediated disease targeting” (ABRAXIS BIOSCIENCE, LLC, priority 2008, published 2012).
Results are given in words; binding and its absence hold for the method and conditions named. Some results given as binding are weak or reduced against the parent protein; the word gives no strength.

The chains behind the UniProt entries cited, without tags or fusion partners. Residues count along the entry.
UniProt P02768, residues 25-609: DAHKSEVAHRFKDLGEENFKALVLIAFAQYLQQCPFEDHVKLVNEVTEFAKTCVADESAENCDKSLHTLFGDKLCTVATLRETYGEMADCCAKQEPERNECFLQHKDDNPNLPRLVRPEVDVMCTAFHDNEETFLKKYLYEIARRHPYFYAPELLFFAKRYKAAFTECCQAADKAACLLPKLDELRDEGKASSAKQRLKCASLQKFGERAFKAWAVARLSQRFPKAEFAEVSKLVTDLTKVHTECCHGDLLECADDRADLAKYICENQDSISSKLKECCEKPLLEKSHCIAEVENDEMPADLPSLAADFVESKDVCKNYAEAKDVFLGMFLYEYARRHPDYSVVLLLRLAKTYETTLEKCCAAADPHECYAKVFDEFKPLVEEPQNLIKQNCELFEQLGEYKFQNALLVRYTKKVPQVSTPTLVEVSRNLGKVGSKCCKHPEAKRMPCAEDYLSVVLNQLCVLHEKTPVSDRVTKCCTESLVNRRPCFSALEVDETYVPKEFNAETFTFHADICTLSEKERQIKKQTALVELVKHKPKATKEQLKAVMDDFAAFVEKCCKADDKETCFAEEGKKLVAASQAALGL

Assays:
[1] = biological target: human serum albumin spiked with Alexa fluor 488 conjugated bovine serum albumin (human) (UniProt P02768); assay: SPARC immobilised on PVDF plate, HSA spiked with Alexa 488-BSA, fluorescence
[2] = biological target: human serum albumin spiked with Alexa fluor 488 conjugated bovine serum albumin (human) (UniProt P02768); assay: Q3 SPARC immobilised on PVDF plate, HSA spiked with Alexa 488-BSA, fluorescence

| binding [1] | binding [2] | Binder |
| --- | --- | --- |
| binds | – | Full length, wild-type SPARC (protein, human, UniProt P09486 18-303, looked up) APQQEALPDETEVVEETVAEVTEVSVGANPVQVEVGEFDDGAEETEEEVVAENPCQNHHCKHGKVCELDENNTPMCVCQDPTSCPAPIGEFEKVCSNDNKTFDSSCHFFATKCTLEGTKKGHKLHLDYIGPCKYIPPCLDSELTEFPLRMRDWLKNVLVTLYERDEDNNLLTEKQKLRVKKIHENEKRLEAGDHPVELLARDFEKNYNMYIFPVHWQFGQLDQHPIDGYLSHTELAPLRAPLIPMEHCTTRFFETCDLDNDKYIALDEWAGCFGIKQKDIDKDLVI |
| – | binds | SPARC deletion mutant in which the glutamine at residue 3 is deleted (protein, UniProt P09486 18-303, looked up) APQEALPDETEVVEETVAEVTEVSVGANPVQVEVGEFDDGAEETEEEVVAENPCQNHHCKHGKVCELDENNTPMCVCQDPTSCPAPIGEFEKVCSNDNKTFDSSCHFFATKCTLEGTKKGHKLHLDYIGPCKYIPPCLDSELTEFPLRMRDWLKNVLVTLYERDEDNNLLTEKQKLRVKKIHENEKRLEAGDHPVELLARDFEKNYNMYIFPVHWQFGQLDQHPIDGYLSHTELAPLRAPLIPMEHCTTRFFETCDLDNDKYIALDEWAGCFGIKQKDIDKDLVI |
